PubChem BioAssay AID652272 | Drosophila RNAi Screening Center | 2013

Aim: 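Genes whose knock-down decreases or increases Hedgehog reporter output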 (primary screen)
System: Drosophila clone 8 (Cl8) cells
Reagent: long dsRNA against Drosophila genes
Detection: 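Plate reader light from a firefly reporter under a ptc promoter fragment that responds to Hedgehog, with Renilla light as transfection reference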
Scale: firefly Hh reporter signal: higher = more ptc reporter light; Renilla reference signal: higher = more Renilla control light
Call rule: 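Hit when the z-score averaged over two replicates is under -2 or over +3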
Calls: active = hit: reporter lowered or raised; inactive = not a hit
The deposit covers about 21,000 reagents; this is a random part of those that have a named target and a result. Of all reagents, 503 (2.4%) got an active call. 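Raw plate light values, not normalised; calls rest on replicate z-scores that were not deposited; hits include reporter decreases as well as increases.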 Entries without a mark were called inactive. Not given: the amount of reagent, the time to read-out.

Against CG43174 (retired record) [SID104189310], the entry reads firefly Hh reporter signal, replicate 1 = 2.41e5; Renilla reference signal, replicate 1 = 5461.
With knock-down of Chd3 [SID104190906], the record shows firefly Hh reporter signal, replicate 1 = 98695; firefly Hh reporter signal, replicate 2 = 1.22e5; Renilla reference signal, replicate 1 = 4379; Renilla reference signal, replicate 2 = 2385.
Knock-down of CG30484 [SID104185249] resulted in: firefly Hh reporter signal, replicate 1 = 1.28e5; firefly Hh reporter signal, replicate 2 = 2.30e5; Renilla reference signal, replicate 1 = 7869; Renilla reference signal, replicate 2 = 8144.
After knock-down of Fip1 (Factor interacting with poly(A) polymerase 1) [SID104191939], the record shows firefly Hh reporter signal, replicate 1 = 77154; firefly Hh reporter signal, replicate 2 = 86669; Renilla reference signal, replicate 1 = 3426; Renilla reference signal, replicate 2 = 4577.

Just “firefly Hh reporter signal, replicate 1” (2 entries from above):
Chd3 [SID104190906]: 98695
CG30484 [SID104185249]: 1.28e5

Next records follow:
Prp38 (pre-mRNA processing factor 38) [SID104186852] gave firefly Hh reporter signal, replicate 1 = 61920; firefly Hh reporter signal, replicate 2 = 50354; Renilla reference signal, replicate 1 = 2183; Renilla reference signal, replicate 2 = 1940.
With knock-down of CG10657 [SID104189560], the record shows firefly Hh reporter signal, replicate 1 = 92786; firefly Hh reporter signal, replicate 2 = 4.72e5; firefly Hh reporter signal, replicate 3 = 65168; Renilla reference signal, replicate 1 = 4115; Renilla reference signal, replicate 2 = 27408.
With knock-down of Cpr47Eb (Cuticular protein 47Eb) [SID104186137] the results were firefly Hh reporter signal, replicate 1 = 1.04e5; firefly Hh reporter signal, replicate 2 = 42593; Renilla reference signal, replicate 1 = 2748; Renilla reference signal, replicate 2 = 3609.
With knock-down of CG31872 [SID104182360], the screen gave firefly Hh reporter signal, replicate 1 = 1.18e5; firefly Hh reporter signal, replicate 2 = 41190; Renilla reference signal, replicate 1 = 3474; Renilla reference signal, replicate 2 = 3898.
After knock-down of CG31872 [SID104182364], the record shows firefly Hh reporter signal, replicate 1 = 1.57e5; firefly Hh reporter signal, replicate 2 = 61207; Renilla reference signal, replicate 1 = 3976; Renilla reference signal, replicate 2 = 4523.
With knock-down of CG4660 [SID104198170], the screen gave firefly Hh reporter signal, replicate 1 = 63584; firefly Hh reporter signal, replicate 2 = 2.02e5; Renilla reference signal, replicate 1 = 1320; Renilla reference signal, replicate 2 = 7476.
With knock-down of RpL22-like (Ribosomal protein L22-like) [SID104184374], the screen gave firefly Hh reporter signal, replicate 1 = 78571; firefly Hh reporter signal, replicate 2 = 83233; Renilla reference signal, replicate 1 = 1331; Renilla reference signal, replicate 2 = 7651.
CR12842 (pseudo) [SID104185980] gave firefly Hh reporter signal, replicate 1 = 75244; firefly Hh reporter signal, replicate 2 = 44692; Renilla reference signal, replicate 1 = 1592; Renilla reference signal, replicate 2 = 3414.
